Measurements reported in PubChem BioAssay AID743458 (Peter MacCallum Cancer Centre, 2014).
Test: 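Find knock-downs that make vorinostat-resistant colon cancer cells sensitive again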 (follow-up of hits). Cells: human HCT116-VR colon cancer cells made resistant to vorinostat. Reagents: single siRNA or pool against human genes, 25 nM per single siRNA. Time to read-out: about 72 h after transfection, including 24 h of drug. Challenge: vorinostat, 2.5 µM final, for 24 h. Measured: 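Live-cell fluorescent viability and luminescent caspase 3/7 activity after vorinostat treatment, background subtracted, mean of duplicate plates, as fold change over mock-transfected wells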. Direction: viability relative to mock: higher = more living cells than mock; caspase activity relative to mock: higher = more apoptosis than mock. Rule for the call: 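An siRNA counts as active if classed as reduced viability or as caspase activation, otherwise inactive; a hit class needed wells that remained healthy in the absence of drug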.
The whole screen tested about 1,800 reagents; this is an unselected part. 732 of them (41%) count as active. 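Calls are per siRNA reagent; a gene was deemed confirmed only if most of its four siRNAs scored.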 Entries without a mark were called inactive. The numbers tell different reagents against one gene apart.

NKX2-1 (GeneID 7080) #1 → viability relative to mock = 0.92; caspase activity relative to mock = 0.72; viability hit class = no change; caspase hit class = no change
NKX2-1 (GeneID 7080) #2 → viability relative to mock = 0.84; caspase activity relative to mock = 1.82; viability hit class = no change; caspase hit class = no change
NKX2-1 (GeneID 7080) #3 → viability relative to mock = 0.55 (active); caspase activity relative to mock = 3.75; viability hit class = reduced viability; caspase hit class = caspase activation
NKX2-1 (GeneID 7080) #4 → viability relative to mock = 0.44 (active); caspase activity relative to mock = 2.96; viability hit class = reduced viability; caspase hit class = caspase activation
TDP2 (GeneID 51567) #1 → viability relative to mock = 0.52 (active); caspase activity relative to mock = 4.45; viability hit class = reduced viability; caspase hit class = caspase activation
TDP2 (GeneID 51567) #2 → viability relative to mock = 0.58 (active); caspase activity relative to mock = 2.85; viability hit class = no change; caspase hit class = caspase activation
TDP2 (GeneID 51567) #3 → viability relative to mock = 0.75 (active); caspase activity relative to mock = 3.59; viability hit class = no change; caspase hit class = caspase activation
TDP2 (GeneID 51567) #4 → viability relative to mock = 0.31 (active); caspase activity relative to mock = 3.81; viability hit class = reduced viability; caspase hit class = caspase activation
SEPHS1 (GeneID 22929) #1 → viability relative to mock = 0.98; caspase activity relative to mock = 1.48; viability hit class = no change; caspase hit class = no change
SEPHS1 (GeneID 22929) #2 → viability relative to mock = 0.7 (active); caspase activity relative to mock = 2.77; viability hit class = no change; caspase hit class = caspase activation
SEPHS1 (GeneID 22929) #3 → viability relative to mock = 0.61 (active); caspase activity relative to mock = 4.21; viability hit class = no change; caspase hit class = caspase activation
SEPHS1 (GeneID 22929) #4 → viability relative to mock = 1.04; caspase activity relative to mock = 1.38; viability hit class = no change; caspase hit class = no change
EIF1AX (GeneID 1964) #1 → viability relative to mock = 0.6; caspase activity relative to mock = 1; viability hit class = no change; caspase hit class = no change
EIF1AX (GeneID 1964) #2 → viability relative to mock = 0.44 (active); caspase activity relative to mock = 1.46; viability hit class = reduced viability; caspase hit class = no change
EIF1AX (GeneID 1964) #3 → viability relative to mock = 0.5 (active); caspase activity relative to mock = 1.31; viability hit class = reduced viability; caspase hit class = no change
EIF1AX (GeneID 1964) #4 → viability relative to mock = 0.51 (active); caspase activity relative to mock = 1.12; viability hit class = reduced viability; caspase hit class = no change
CD79A (GeneID 973) #1 → viability relative to mock = 0.2 (active); caspase activity relative to mock = 4.62; viability hit class = reduced viability; caspase hit class = caspase activation
CD79A (GeneID 973) #2 → viability relative to mock = 0.7 (active); caspase activity relative to mock = 3.84; viability hit class = no change; caspase hit class = caspase activation
CD79A (GeneID 973) #3 → viability relative to mock = 0.76; caspase activity relative to mock = 1.9; viability hit class = no change; caspase hit class = no change
CD79A (GeneID 973) #4 → viability relative to mock = 0.68; caspase activity relative to mock = 2.05; viability hit class = no change; caspase hit class = no change
SLC60A1 (GeneID 148808) #1 → viability relative to mock = 1.13; caspase activity relative to mock = 1.3; viability hit class = no change; caspase hit class = no change
SLC60A1 (GeneID 148808) #2 → viability relative to mock = 0.89; caspase activity relative to mock = 1.66; viability hit class = no change; caspase hit class = no change
SLC60A1 (GeneID 148808) #3 → viability relative to mock = 0.96; caspase activity relative to mock = 2.11; viability hit class = no change; caspase hit class = no change
SLC60A1 (GeneID 148808) #4 → viability relative to mock = 0.86; caspase activity relative to mock = 1.71; viability hit class = no change; caspase hit class = no change
STN1 (GeneID 79991) #1 → viability relative to mock = 0.66; caspase activity relative to mock = 1.51; viability hit class = no change; caspase hit class = no change
STN1 (GeneID 79991) #2 → viability relative to mock = 0.18; caspase activity relative to mock = 3.51; viability hit class = no change; caspase hit class = no change
STN1 (GeneID 79991) #3 → viability relative to mock = 0.7 (active); caspase activity relative to mock = 5.21; viability hit class = no change; caspase hit class = caspase activation
STN1 (GeneID 79991) #4 → viability relative to mock = 0.76 (active); caspase activity relative to mock = 3.88; viability hit class = no change; caspase hit class = caspase activation

Ordered by “caspase activity relative to mock” (high to low): 2 of the entries above.
SLC60A1 (GeneID 148808) #3 → viability relative to mock = 0.96; caspase activity relative to mock = 2.11; viability hit class = no change; caspase hit class = no change
SLC60A1 (GeneID 148808) #2 → viability relative to mock = 0.89; caspase activity relative to mock = 1.66; viability hit class = no change; caspase hit class = no change
